The list shows a part of the results.

Amino acid sequences for entries named in this document (tags omitted). A change or cut given only in a name is not applied to a line headed by its entry.
UniProt P04040: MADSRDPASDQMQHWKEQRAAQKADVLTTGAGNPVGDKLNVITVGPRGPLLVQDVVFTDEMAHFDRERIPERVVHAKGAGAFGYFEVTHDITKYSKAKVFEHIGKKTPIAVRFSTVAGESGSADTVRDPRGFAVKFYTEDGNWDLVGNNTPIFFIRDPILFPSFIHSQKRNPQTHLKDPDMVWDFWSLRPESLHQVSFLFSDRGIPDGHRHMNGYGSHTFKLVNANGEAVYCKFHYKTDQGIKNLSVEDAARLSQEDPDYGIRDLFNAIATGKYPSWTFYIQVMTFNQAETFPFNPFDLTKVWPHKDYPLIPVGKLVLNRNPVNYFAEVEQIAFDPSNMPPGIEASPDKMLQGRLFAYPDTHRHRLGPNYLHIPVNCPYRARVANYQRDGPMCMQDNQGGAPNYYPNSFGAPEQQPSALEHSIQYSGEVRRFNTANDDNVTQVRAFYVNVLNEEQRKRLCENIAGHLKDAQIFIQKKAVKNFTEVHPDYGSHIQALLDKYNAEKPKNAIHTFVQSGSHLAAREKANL
UniProt P29466: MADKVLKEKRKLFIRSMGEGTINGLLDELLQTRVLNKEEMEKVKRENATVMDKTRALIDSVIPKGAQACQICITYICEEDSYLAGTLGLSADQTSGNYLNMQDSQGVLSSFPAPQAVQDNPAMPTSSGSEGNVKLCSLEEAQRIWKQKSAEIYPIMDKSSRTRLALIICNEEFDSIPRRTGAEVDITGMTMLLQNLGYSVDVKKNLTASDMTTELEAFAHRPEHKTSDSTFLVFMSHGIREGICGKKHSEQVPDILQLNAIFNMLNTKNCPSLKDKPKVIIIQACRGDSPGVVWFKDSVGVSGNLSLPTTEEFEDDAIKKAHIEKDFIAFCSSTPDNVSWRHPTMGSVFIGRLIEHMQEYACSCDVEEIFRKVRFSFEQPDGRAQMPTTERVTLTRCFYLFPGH
UniProt P49662: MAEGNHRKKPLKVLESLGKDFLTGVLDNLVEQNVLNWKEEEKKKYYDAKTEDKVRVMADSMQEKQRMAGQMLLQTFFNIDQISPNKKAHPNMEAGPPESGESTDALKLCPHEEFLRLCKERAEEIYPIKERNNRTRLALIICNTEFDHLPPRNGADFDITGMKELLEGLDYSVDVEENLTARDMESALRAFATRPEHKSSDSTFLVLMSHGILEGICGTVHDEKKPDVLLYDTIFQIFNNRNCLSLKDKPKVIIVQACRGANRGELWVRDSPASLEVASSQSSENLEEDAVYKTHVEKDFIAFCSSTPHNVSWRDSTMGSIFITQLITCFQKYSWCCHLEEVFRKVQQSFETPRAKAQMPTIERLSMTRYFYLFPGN
UniProt A6NC98: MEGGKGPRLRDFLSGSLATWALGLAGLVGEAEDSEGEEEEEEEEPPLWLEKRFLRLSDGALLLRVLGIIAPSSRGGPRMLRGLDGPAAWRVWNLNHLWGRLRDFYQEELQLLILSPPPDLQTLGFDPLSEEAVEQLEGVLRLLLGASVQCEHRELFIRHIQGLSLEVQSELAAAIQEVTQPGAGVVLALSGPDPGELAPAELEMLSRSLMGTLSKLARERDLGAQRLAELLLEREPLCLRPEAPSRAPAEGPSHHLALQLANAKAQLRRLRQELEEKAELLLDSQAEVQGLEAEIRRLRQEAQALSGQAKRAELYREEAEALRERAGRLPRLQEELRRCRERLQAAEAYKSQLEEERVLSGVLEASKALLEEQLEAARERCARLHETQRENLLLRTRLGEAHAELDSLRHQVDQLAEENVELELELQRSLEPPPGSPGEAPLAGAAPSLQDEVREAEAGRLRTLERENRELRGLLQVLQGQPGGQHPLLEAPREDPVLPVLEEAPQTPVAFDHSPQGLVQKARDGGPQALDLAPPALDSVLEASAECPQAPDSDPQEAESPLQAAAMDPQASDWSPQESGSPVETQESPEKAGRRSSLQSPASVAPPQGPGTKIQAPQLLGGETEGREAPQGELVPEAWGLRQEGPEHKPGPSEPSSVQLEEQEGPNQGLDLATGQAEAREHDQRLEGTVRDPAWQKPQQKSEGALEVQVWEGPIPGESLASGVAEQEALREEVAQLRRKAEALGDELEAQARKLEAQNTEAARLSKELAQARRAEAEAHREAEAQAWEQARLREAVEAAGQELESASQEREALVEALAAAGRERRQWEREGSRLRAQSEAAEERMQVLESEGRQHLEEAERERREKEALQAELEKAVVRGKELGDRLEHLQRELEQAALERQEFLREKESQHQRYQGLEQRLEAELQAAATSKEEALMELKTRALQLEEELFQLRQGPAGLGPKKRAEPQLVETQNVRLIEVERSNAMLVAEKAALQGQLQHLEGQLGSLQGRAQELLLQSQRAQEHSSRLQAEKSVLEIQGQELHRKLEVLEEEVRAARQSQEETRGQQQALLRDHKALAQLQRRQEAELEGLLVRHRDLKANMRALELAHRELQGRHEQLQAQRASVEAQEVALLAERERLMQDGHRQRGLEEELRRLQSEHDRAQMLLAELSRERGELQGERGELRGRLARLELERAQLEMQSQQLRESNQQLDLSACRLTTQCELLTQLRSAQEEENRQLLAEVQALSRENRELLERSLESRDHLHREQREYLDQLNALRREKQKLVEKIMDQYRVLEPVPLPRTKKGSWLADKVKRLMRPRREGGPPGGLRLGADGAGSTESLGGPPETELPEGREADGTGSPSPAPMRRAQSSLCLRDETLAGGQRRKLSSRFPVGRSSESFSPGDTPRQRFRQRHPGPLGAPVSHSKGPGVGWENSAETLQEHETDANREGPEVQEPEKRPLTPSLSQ
UniProt P78371: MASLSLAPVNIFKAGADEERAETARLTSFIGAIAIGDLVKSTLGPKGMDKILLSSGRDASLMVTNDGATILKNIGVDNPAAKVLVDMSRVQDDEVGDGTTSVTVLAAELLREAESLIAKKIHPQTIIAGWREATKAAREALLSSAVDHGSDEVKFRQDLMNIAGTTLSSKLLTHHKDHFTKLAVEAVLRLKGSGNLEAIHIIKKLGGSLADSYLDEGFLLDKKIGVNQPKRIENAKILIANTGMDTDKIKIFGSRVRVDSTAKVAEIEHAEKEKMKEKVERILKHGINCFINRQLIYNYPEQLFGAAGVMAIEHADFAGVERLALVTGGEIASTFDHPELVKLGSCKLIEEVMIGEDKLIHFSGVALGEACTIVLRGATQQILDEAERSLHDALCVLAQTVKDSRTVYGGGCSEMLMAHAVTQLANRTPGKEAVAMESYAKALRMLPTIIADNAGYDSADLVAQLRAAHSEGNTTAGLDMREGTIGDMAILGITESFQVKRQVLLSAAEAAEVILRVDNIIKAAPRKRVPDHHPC
UniProt P42575: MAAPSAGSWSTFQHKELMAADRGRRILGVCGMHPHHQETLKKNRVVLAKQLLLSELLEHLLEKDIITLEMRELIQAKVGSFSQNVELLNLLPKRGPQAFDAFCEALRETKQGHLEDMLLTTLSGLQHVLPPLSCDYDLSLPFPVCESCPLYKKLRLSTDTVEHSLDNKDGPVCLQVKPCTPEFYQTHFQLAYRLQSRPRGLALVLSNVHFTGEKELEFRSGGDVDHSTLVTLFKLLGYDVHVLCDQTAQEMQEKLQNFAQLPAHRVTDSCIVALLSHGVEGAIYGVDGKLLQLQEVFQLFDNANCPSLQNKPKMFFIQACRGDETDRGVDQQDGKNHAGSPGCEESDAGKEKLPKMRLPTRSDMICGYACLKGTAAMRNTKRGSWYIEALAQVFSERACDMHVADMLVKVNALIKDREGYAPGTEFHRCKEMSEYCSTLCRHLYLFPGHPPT
UniProt P49368: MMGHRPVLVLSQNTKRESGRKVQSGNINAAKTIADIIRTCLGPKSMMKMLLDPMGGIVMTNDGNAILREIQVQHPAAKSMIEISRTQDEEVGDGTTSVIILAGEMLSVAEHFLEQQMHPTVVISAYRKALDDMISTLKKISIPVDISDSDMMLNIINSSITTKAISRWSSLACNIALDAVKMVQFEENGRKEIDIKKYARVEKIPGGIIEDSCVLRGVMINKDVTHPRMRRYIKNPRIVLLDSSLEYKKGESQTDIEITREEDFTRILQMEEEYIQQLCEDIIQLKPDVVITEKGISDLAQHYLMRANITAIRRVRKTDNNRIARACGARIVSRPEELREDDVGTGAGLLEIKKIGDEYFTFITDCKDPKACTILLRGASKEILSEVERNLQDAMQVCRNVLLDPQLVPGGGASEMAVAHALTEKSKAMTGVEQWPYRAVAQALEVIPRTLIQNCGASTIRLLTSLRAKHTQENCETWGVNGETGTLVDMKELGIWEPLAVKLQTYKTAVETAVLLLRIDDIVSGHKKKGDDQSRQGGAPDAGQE
UniProt P07384: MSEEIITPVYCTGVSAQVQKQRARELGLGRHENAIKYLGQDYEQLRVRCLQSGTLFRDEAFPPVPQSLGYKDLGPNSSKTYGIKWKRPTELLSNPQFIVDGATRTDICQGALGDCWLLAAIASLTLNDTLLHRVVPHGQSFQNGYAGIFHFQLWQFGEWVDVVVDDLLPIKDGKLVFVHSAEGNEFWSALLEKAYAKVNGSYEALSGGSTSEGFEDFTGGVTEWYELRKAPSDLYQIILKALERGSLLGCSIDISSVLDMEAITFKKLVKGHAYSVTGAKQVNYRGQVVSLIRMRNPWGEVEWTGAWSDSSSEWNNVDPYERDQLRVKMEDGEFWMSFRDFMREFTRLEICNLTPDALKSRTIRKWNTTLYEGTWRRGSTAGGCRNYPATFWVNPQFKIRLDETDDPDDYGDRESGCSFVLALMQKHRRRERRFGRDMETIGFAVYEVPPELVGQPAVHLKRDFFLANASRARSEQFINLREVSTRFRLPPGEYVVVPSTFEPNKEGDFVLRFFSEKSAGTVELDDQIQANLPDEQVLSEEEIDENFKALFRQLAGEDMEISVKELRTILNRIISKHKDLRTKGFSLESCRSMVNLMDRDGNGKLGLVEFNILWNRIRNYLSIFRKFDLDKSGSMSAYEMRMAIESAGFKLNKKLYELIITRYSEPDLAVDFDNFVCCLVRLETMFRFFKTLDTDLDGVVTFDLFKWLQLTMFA
UniProt Q9ULG6: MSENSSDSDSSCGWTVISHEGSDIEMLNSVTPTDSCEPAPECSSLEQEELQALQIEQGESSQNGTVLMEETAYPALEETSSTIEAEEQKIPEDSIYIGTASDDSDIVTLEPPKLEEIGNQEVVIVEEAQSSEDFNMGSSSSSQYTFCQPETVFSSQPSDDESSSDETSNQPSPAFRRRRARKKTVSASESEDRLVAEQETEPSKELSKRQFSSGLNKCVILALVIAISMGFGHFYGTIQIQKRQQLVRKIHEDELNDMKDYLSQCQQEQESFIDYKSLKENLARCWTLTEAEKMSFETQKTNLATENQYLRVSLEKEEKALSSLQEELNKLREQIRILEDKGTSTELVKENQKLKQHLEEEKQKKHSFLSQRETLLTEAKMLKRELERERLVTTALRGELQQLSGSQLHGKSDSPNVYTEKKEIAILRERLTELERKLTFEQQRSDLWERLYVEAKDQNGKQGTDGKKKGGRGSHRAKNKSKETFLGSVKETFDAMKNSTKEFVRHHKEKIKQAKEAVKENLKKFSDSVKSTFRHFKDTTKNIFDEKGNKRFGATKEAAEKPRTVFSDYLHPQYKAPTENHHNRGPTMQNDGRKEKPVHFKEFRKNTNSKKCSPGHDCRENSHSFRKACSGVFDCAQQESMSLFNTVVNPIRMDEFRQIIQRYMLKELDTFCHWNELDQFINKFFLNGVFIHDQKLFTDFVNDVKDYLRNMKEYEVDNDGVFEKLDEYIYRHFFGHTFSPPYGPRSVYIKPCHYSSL
UniProt Q9Y6W3: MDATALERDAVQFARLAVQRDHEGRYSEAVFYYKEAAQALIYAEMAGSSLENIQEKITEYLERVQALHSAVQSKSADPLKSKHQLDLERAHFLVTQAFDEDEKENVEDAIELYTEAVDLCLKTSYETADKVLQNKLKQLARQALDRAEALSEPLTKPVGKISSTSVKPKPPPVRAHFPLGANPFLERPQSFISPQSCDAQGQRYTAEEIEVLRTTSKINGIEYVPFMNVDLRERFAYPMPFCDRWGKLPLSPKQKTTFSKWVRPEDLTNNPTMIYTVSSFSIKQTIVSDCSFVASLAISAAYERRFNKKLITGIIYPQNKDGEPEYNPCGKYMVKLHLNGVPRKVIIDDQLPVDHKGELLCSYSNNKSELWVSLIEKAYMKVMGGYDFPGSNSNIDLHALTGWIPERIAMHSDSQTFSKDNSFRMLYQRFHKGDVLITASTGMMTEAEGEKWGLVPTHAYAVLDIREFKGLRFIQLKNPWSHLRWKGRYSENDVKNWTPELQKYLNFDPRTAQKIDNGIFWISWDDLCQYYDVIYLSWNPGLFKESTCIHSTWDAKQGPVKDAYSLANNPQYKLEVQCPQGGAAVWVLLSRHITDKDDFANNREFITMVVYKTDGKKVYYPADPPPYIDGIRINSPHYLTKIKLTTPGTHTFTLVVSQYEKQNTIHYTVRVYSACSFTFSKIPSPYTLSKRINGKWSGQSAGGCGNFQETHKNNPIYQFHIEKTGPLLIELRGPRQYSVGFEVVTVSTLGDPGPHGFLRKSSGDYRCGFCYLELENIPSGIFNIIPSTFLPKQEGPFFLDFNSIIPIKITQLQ

Compound in this experiment: Cc1cc(ccc1-c1ccccc1)C(=O)N1CCCN(CC1)C(=O)CCl [compound 10]
In words: probe-labelled cysteine peptide fold change vs DMSO (competition) (log2 fold change); higher = less target engagement (more negative = stronger competition). Particulars: THP-1, incubation time: 4 h.
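Note: competitive profiling in live THP-1 cells: cysteine peptides tagged with an iodoacetamide desthiobiotin (IA-DTB) probe, intensity after compound treatment relative to DMSO-treated cells.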

As to “CAT_P04040_460_LCENIAGHLK (UniProt P04040)”, the “probe-labelled cysteine peptide fold change” value was 0.0902 (10 µM) and -0.0858 (50 µM).
Consider “CAP1_Q01518_93_LERALLVTASQCQQPAENK (UniProt Q01518)”, for which the “probe-labelled cysteine peptide fold change” value by setting is: (10 µM) 0.451; (50 µM) 0.00964.
With “CASP1_P29466_397_CFYLFPGH (UniProt P29466)”, the “probe-labelled cysteine peptide fold change” value was 0.0684 (10 µM) and -0.176 (50 µM).
“CASP4_P49662_142_LALIICNTEFDHLPPR (UniProt P49662)”: the “probe-labelled cysteine peptide fold change” value by setting is: (10 µM) 0.0266; (50 µM) -0.0433.
As to “CC2D1B_Q5T0F9_634_CLLFSK (UniProt Q5T0F9)”, the “probe-labelled cysteine peptide fold change” value reads like this: (10 µM) -0.14; (50 µM) -0.0501.
In the case of “CCDC88B_A6NC98_1228_LTTQCELLTQLR (UniProt A6NC98)”, the “probe-labelled cysteine peptide fold change” value by setting is: (10 µM) -0.202; (50 µM) 0.324.
For “CCNA2_P20248_390_KTGYTLESLKPCLMDLHQTYLK (UniProt P20248)” the same measures were -0.0923 and -0.383.
Regarding “CCT2_P78371_412_TVYGGGCSEMLMAHAVTQLANR (UniProt P78371)”, the “probe-labelled cysteine peptide fold change” value is 0.0056 (10 µM) and -0.00435 (50 µM).
For “CCT2_P78371_395_SLHDALCVLAQTVK (UniProt P78371)”, the “probe-labelled cysteine peptide fold change” value by setting is: (10 µM) 0.165; (50 µM) 0.0995.
As to “CCDC9_Q9Y3X0_233_CGLEHER (UniProt Q9Y3X0)”, the “probe-labelled cysteine peptide fold change” value by setting is: (10 µM) -0.251; (50 µM) -0.831.
In the case of “CASP10_Q92851_169_QGKIDEDNLTCLEDLCK (UniProt Q92851)”, the “probe-labelled cysteine peptide fold change” value (10 µM) is -0.0825 and the “probe-labelled cysteine peptide fold change” value (50 µM) is -0.564.
Regarding “CAPNS1_P04632_190_SGTICSSELPGAFEAAGFHLNEHLYNMIIRR (UniProt P04632)”, the “probe-labelled cysteine peptide fold change” value runs as follows: (10 µM) 0.0699; (50 µM) -0.19.
For “CASP2_P42575_305_LLQLQEVFQLFDNANCPSLQNKPK (UniProt P42575)” the same measures were -0.124 and -0.293.
Consider “CBFB_Q13951_107_APMILNGVCVIWK (UniProt Q13951)”, for which the “probe-labelled cysteine peptide fold change” value (10 µM) was 0.0757 and the “probe-labelled cysteine peptide fold change” value (50 µM) is 0.0712.
With “CASP2_P42575_244_LLGYDVHVLCDQTAQEMQEK (UniProt P42575)”, the “probe-labelled cysteine peptide fold change” value is, setting by setting: (10 µM) -0.000221; (50 µM) 0.0104.
Take “CAPZA2_P47755_111_EATDPRPCEVENAVESWR (UniProt P47755)”: the “probe-labelled cysteine peptide fold change” value by setting is: (10 µM) -0.035; (50 µM) 0.0145.
On to “CARS_P49589_27_VQPQWSPPAGTQPCR (UniProt P49589)”, for which the “probe-labelled cysteine peptide fold change” value (10 µM) is -0.136 and the “probe-labelled cysteine peptide fold change” value (50 µM) is -0.695.
As for “CBL_P22681_572_RPLPCTPGDCPSR (UniProt P22681)”, the “probe-labelled cysteine peptide fold change” value (10 µM) was -0.054 and the “probe-labelled cysteine peptide fold change” value (50 µM) is -0.0885.
For the target “CBX8_Q9HC52_261_RQDSDLVQCGVTSPSSAEATGK (UniProt Q9HC52)”, the “probe-labelled cysteine peptide fold change” value reads like this: (10 µM) -0.211; (50 µM) -0.0374.
Consider “CCT3_P49368_366_IGDEYFTFITDCK (UniProt P49368)”, for which the “probe-labelled cysteine peptide fold change” value reads like this: (10 µM) -0.0468; (50 µM) -0.827.
For “CARD9_Q9H257_454_GCLAGGGSPK (UniProt Q9H257)” the same measures were -0.148 and -0.0852.
With “CAPN1_P07384_417_IRLDETDDPDDYGDRESGCSFVLALMQK (UniProt P07384)”, the “probe-labelled cysteine peptide fold change” value is, setting by setting: (10 µM) -0.0999; (50 µM) -0.171.
For the target “CASP1_P29466_169_LALIICNEEFDSIPR (UniProt P29466)”, the “probe-labelled cysteine peptide fold change” value was found to be 0.166 (10 µM) and 0.0663 (50 µM).
For “CCPG1_Q9ULG6_672_ELDTFCHWNELDQFINK (UniProt Q9ULG6)” the same measures were -0.0179 and 0.518.
Regarding “CCT5_P48643_429_VVYGGGAAEISCALAVSQEADK (UniProt P48643)”, the “probe-labelled cysteine peptide fold change” value is -0.0204 (10 µM) and 0.249 (50 µM).
For “CAPNS1_P04632_190_SGTICSSELPGAFEAAGFHLNEHLYNMIIR (UniProt P04632)” the same measures were 0.0642 and 0.226.
As to CCT3_P49368_40_TCLGPK (UniProt P49368), the “probe-labelled cysteine peptide fold change” value was 0.151 (10 µM) and 0.131 (50 µM).
Take “CCDC77_Q9BR77_164_IQNLLALVGTDAGEVTYFCK (UniProt Q9BR77)”: the “probe-labelled cysteine peptide fold change” value runs as follows: (10 µM) 0.0104; (50 µM) -0.0631.
As to “CAPN7_Q9Y6W3_548_ESTCIHSTWDAK (UniProt Q9Y6W3)”, the “probe-labelled cysteine peptide fold change” value by setting is: (10 µM) 0.237; (50 µM) 0.423.
With “CCDC22_O60826_441_KLQDCR (UniProt O60826)”, the “probe-labelled cysteine peptide fold change” value runs as follows: (10 µM) -0.15; (50 µM) -0.337.
For “CCT2_P78371_535_VPDHHPC (UniProt P78371)” the same measures were 0.162 and 0.187.
The corresponding values for “CAPN7_Q9Y6W3_361_KVIIDDQLPVDHKGELLCSYSNNK (UniProt Q9Y6W3)” are -0.0297 and -0.16.
With “CAPN2_P17655_301_WNDNCPSWNTIDPEERER (UniProt P17655)”, the “probe-labelled cysteine peptide fold change” value (10 µM) was -0.159 and the “probe-labelled cysteine peptide fold change” value (50 µM) was -0.451.
